The values below come from patent US7432045B2 (priority 2003, dated 2008).

Some peptides are written in HELM: one residue between dots, names in brackets for other building blocks, links after the first $.

A short description of this series: peptide synthesis. The settings on record: whole synthesis.
Regarding ^b-Y GRKKRRQRRRPGDVYANGLVA^COOH, the “purity (crude or final not stated)” value stood at 90%.
In the case of “PEPTIDE1{[BiotinAhx].L.V.L.A.A.P.L.A.V.L.A.P.G.R.K.K.R.R.Q.R.R.R.C.[am]}$$$$V2.0” it was 63%.
As to “PEPTIDE1{[BiotinAhx].L.A.A.L.P.L.V.L.A.A.P.L.A.V.L.A.P.G.R.K.K.R.R.Q.R.R.R.C.[am]}$$$$V2.0”, the “purity (crude or final not stated)” value worked out at 92%.
Regarding “PEPTIDE1{[BiotinAhx].Y.G.R.K.K.R.R.Q.R.R.R.P.G.Y.A.G.A.V.V.N.D.L}$$$$V2.0”, the “purity (crude or final not stated)” value came out at 79%.
As for ^b-GRKKRRQRRRC^amide, the “purity (crude or final not stated)” value amounted to 91%.
Regarding “PEPTIDE1{G.R.K.K.R.R.Q.R.R.R.P.L.A.A.L.P.L.V.L.A.A.P.L.A.V.L.A}$$$$V2.0”, the “purity (crude or final not stated)” value turned out to be 84%.
As to ^b-LAVLAPGRKKRRQRRRC^amide, the “purity (crude or final not stated)” value amounted to 70%.
Regarding PEPTIDE1{G.R.K.K.R.R.Q.R.R.R.C}$$$$V2.0, the “purity (crude or final not stated)” value came to 97%.
For the substance “PEPTIDE1{[BiotinAhx].Y.G.R.K.K.R.R.Q.R.R.R.P.L.A.A.L.P.L.V.L.A.A.P.L.A.V.L.A}$$$$V2.0”, the “purity (crude or final not stated)” value is 99%.
For ^NH2GRKKRRQRRR^amide, the “purity (crude or final not stated)” value was determined as 96%.
